PubChem BioAssay AID1259283 – Sanger Institute – 2017

Screen: 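Kinases needed for HT115 growth and partners for drug synergy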 (primary screen)
Cells: HT115 colorectal cancer cells
Reagents: siRNA pool against human genes
Conditions: anchor drug given one day after siRNA: BYL719 at 1 µM, cetuximab at 5 µg/ml, trametinib at 10 nM, or DMSO vehicle alone
Measurement: 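Viability normalised to non-targeting pool #2 wells and averaged over replicates, robust z-score against control wells, and a synergy score for each of three drugs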
Direction: robust z-score, knock-down alone: higher = more viable cells after knock-down; viability, DMSO vs non-targeting control: higher = more viable cells; synergy score with BYL719 and synergy score with cetuximab: higher = stronger synergy with drug (synthetic lethal)
Call rule: 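Essential gene: robust z-score less than -3 with no drug added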
Meaning of the calls: active = essential (z below -3, no drug); inactive = no change without drug
Here is an unselected part of 794 reagents tested. 14 of all reagents (1.8%) count as active. 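Calls reflect only viability loss without drug; drug synergy does not enter the call.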 No viability above 1 is reported: the scale is capped. Further read-outs or replicates are left out here. No sequences are given here. Not given: the amount of reagent, the time to read-out.

no.	target gene	robust z-score, knock-down alone	viability, DMSO vs non-targeting control (fraction of control)	synergy score with BYL719	synergy score with cetuximab	call
1	SRPK2	0.305	0.955	-0.012	-0.0538	inactive
2	ARAF	0.789	1	-0.0224	-0.00875	inactive
3	CLK3	-0.0691	0.921	0.119	0.00406	inactive
4	NME4	-0.322	0.897	-0.0193	0.083	inactive
5	PKMYT1	-1.27	0.81	-0.163	0.0114	inactive
6	GRK3	0.244	0.95	-0.0656	-0.0916	inactive
7	CDK6	0.789	1	0.00646	0.0945	inactive
8	IRAK2	0.284	0.953	-0.0163	-0.0353	inactive
9	N4BP2	0.789	1	-0.0224	-0.0138	inactive
10	NME1	0.424	0.966	-0.0327	-0.00281	inactive
11	LRRK1	0.534	0.976	-0.0455	0.096	inactive

Next part (2 carried over from the part before).
no.	target gene	robust z-score, knock-down alone	viability, DMSO vs non-targeting control (fraction of control)	synergy score with BYL719	synergy score with cetuximab	call
10	NME1	0.424	0.966	-0.0327	-0.00281	inactive
11	LRRK1	0.534	0.976	-0.0455	0.096	inactive
12	ATM	-0.353	0.894	0.0612	0.127	inactive
13	POLR2B	-4.31	0.529	-0.12	-0.0387	active
14	PRP4K	0.481	0.972	0.0719	0.196	inactive
15	MED12	0.0744	0.934	-0.0676	0.0331	inactive
16	EPHA2	0.789	1	0.0432	0.00919	inactive
17	TNK2	0.789	1	0.0541	0.14	inactive
18	GALK1	-3.43	0.61	-0.0406	-0.085	active
19	FER	0.744	0.996	-0.0265	0.0596	inactive
20	DYRK3	-0.888	0.845	-0.0133	-0.0384	inactive
21	DGKA	-0.342	0.895	0.0495	0.0929	inactive
22	AXL	0.706	0.992	-0.0296	0.0465	inactive
23	ALK	-2.49	0.696	-0.228	-0.0965	inactive
24	GTF2H1	-0.937	0.84	-0.058	-0.00383	inactive
25	TBK1	-1.5	0.789	0.0309	0.0643	inactive
26	RPS6KA2	-0.759	0.857	0.0462	-0.00662	inactive
27	PANK3	0.789	1	-0.0224	-0.0435	inactive
28	ULK1	0.534	0.976	0.0451	0.128	inactive
29	NME6	-3.26	0.626	-0.072	-0.0207	active
30	CDK14	0.435	0.967	-0.0483	0.112	inactive
31	MARK4	0.611	0.984	0.0197	0.167	inactive
32	NR2F2	-1.85	0.756	-0.117	0.00187	inactive
33	PFKP	-0.666	0.866	-0.0186	0.0752	inactive
34	CDKL2	-1.26	0.811	-0.0356	-0.036	inactive
